# At least one peptide structure holds a part that was inferred or is arguable (an end, a ring closure or a residue). Some entries repeat one wording, which the source may state once for all of them. No end group written: not given here.
# Test system: human breast malignant carcinoma cell line MCF-7
# Type: cell-based
# Conditions: RPMI-1640 medium containing 5% FBS; 24 hours; maximum 200 μg/ml
# Procedure: (§1) The cytotoxic effects of the peptides on different human tumour cells were measured using the MTT colorimetric assay (Mosmann, 1983). […] Dissolved MIT is converted to an insoluble purple formazan by cleavage of the tetrazolium ring by dehydrogenase enzymes. This water insoluble formazan can be solubilized using isopropanol or other solvents and the dissolved material is measured spectrophotometrically. The absorbance was measured as a function of concentration of converted dye. The conversion of the soluble dye to the insoluble purple formazan is utilized in assays for measurement of cell proliferation. […] We used this assay to measure the degree of cell death caused by the peptides. MCF-7 was maintained in EMEM, A2058 in DMEM and […]-29 in RPMI-1640 medium supplemented with 10% heat inactivated […] and 1% L-glutamine-L-alanine in a humidified atmosphere of 5% CO2 at 37° C. The human embryonic fibroblast cell line, MRC-5 (which is normal fibroblasts), was cultured as a monolayer in MEM medium, under the same conditions as described for the tumour cell lines. Cells to be used in the assay were grown to a minimum of 75% confluency, trypsinated and split to single cell suspension, counted and centrifuged at 1500 rpm for 10 min. The cell pellet was resuspended to a concentration of 2×10^5 cells/ml (HT-29) or 1×10^5 (MRC-5, MCF7 and A2058) in DMEM without FBS and L-glutamine-L-alanine (assay-medium). All cell lines were routinely tested for mycoplasma infection using a PCR-based mycoplasma detection kit (MycoSensor PCR Assay Kit, Stratagene), following the supplier's instructions. All cell lines were mycoplasma free. The cytotoxicity was measured using the MTT method (Mosmann, 1983), with minor modifications. Different human tumour cells (1-2×10^5) were applied in 96-well culture plates in a volume of 100 μl DMEM medium and incubated at 37° C. for 24 hours. The medium was removed and the cells were treated with 100 μl of peptide solution (concentrations ranging from 0 to 200 μg/ml), diluted in a) RPMI-1640 medium supplemented with 5% heat inactivated FBS, or b) RPMI-1640 medium without FBS. The plates were incubated at 37° C. for 24 hours. Cells treated with Triton X-100 (1%) was used as positive control (100% killing) whereas cells plus medium only were used as negative control. […] A volume of 70 μl of the supernatant was then removed and […] (0.04 M HCl in isopropanol) added to each well. The plate was placed on a shaker for 1 hour at room temperature and read spectrophotometrically at 590 nm in a microtiter plate reader (DTX880 Multimode Detector, Beckman Coulter).
row,Substance,"Antitumoral activity IC50, MCF-7"
1,DLRGACAAAHAL [P17 LC],— (The symbol “—” denotes no activity within the concentration range tested.)
2,GQRGCSALGF [P17 HC (21-30)],— (The symbol “—” denotes no activity within the concentration range tested.)
3,GWFKK [P17 HC (1-5)],— (The symbol “—” denotes no activity within the concentration range tested.)
4,GWFKKTFHKV [P17 HC (1-10)],— (The symbol “—” denotes no activity within the concentration range tested.)
5,GWFKKTFHKVSHAVKSGIHA [P17 HC (1-20)],— (The symbol “—” denotes no activity within the concentration range tested.)
6,SHAVKSGIHA [P17 HC (11-20)],— (The symbol “—” denotes no activity within the concentration range tested.)

# Same assay, conditions: serum-free RPMI-1640 medium; 24 hours; maximum 200 μg/ml
row,Substance,"Antitumoral activity IC50, MCF-7"
1,DLRGACAAAHAL [P17 LC],— (The symbol “—” denotes no activity within the concentration range tested.)
2,GQRGCSALGF [P17 HC (21-30)],— (The symbol “—” denotes no activity within the concentration range tested.)
3,GWFKK [P17 HC (1-5)],— (The symbol “—” denotes no activity within the concentration range tested.)
4,GWFKKTFHKV [P17 HC (1-10)],— (The symbol “—” denotes no activity within the concentration range tested.)
5,GWFKKTFHKVSHAVKSGIHA [P17 HC (1-20)],— (The symbol “—” denotes no activity within the concentration range tested.)

# Test system: human colorectal adenocarcinoma cell line HT-29
# Type: cell-based
# Conditions: RPMI-1640 medium containing 5% FBS; 24 hours; maximum 200 μg/ml
# Procedure: as §1
row,Substance,"Antitumoral activity IC50, HT-29"
1,DLRGACAAAHAL [P17 LC],— (The symbol “—” denotes no activity within the concentration range tested.)
2,GQRGCSALGF [P17 HC (21-30)],— (The symbol “—” denotes no activity within the concentration range tested.)
3,GWFKK [P17 HC (1-5)],— (The symbol “—” denotes no activity within the concentration range tested.)
4,GWFKKTFHKV [P17 HC (1-10)],— (The symbol “—” denotes no activity within the concentration range tested.)
5,GWFKKTFHKVSHAVKSGIHA [P17 HC (1-20)],—^b (The symbol “—” denotes no activity within the concentration range tested.)
6,SHAVKSGIHA [P17 HC (11-20)],* (The symbol “*” denotes 30-50% killing at the highest concentration tested.)

# Same assay, conditions: serum-free RPMI-1640 medium; 24 hours; maximum 200 μg/ml
row,Substance,"Antitumoral activity IC50, HT-29"
1,DLRGACAAAHAL [P17 LC],— (The symbol “—” denotes no activity within the concentration range tested.)
2,GQRGCSALGF [P17 HC (21-30)],— (The symbol “—” denotes no activity within the concentration range tested.)
3,GWFKK [P17 HC (1-5)],— (The symbol “—” denotes no activity within the concentration range tested.)
4,GWFKKTFHKV [P17 HC (1-10)],— (The symbol “—” denotes no activity within the concentration range tested.)
5,GWFKKTFHKVSHAVKSGIHA [P17 HC (1-20)],—^c (The symbol “—” denotes no activity within the concentration range tested.)
6,SHAVKSGIHA [P17 HC (11-20)],— (The symbol “—” denotes no activity within the concentration range tested.)

# Test system: human embryonic lung fibroblast cell line MRC-5
# Type: cell-based
# Conditions: normal fibroblasts; RPMI-1640 medium containing 5% FBS; 24 hours; maximum 200 μg/ml
# Procedure: as §1
row,Substance,"IC50, MRC-5"
1,DLRGACAAAHAL [P17 LC],— (The symbol “—” denotes no activity within the concentration range tested.)
2,GQRGCSALGF [P17 HC (21-30)],— (The symbol “—” denotes no activity within the concentration range tested.)
3,GWFKK [P17 HC (1-5)],— (The symbol “—” denotes no activity within the concentration range tested.)
4,GWFKKTFHKV [P17 HC (1-10)],— (The symbol “—” denotes no activity within the concentration range tested.)
5,GWFKKTFHKVSHAVKSGIHA [P17 HC (1-20)],— (The symbol “—” denotes no activity within the concentration range tested.)
6,SHAVKSGIHA [P17 HC (11-20)],— (The symbol “—” denotes no activity within the concentration range tested.)

# Same assay, conditions: normal fibroblasts; serum-free RPMI-1640 medium; 24 hours; maximum 200 μg/ml
row,Substance,"IC50, MRC-5"
1,DLRGACAAAHAL [P17 LC],— (The symbol “—” denotes no activity within the concentration range tested.)
2,GQRGCSALGF [P17 HC (21-30)],* (The symbol “*” denotes 30-50% killing at the highest concentration tested.)
3,GWFKK [P17 HC (1-5)],— (The symbol “—” denotes no activity within the concentration range tested.)
4,GWFKKTFHKV [P17 HC (1-10)],— (The symbol “—” denotes no activity within the concentration range tested.)
5,GWFKKTFHKVSHAVKSGIHA [P17 HC (1-20)],— (The symbol “—” denotes no activity within the concentration range tested.)
6,SHAVKSGIHA [P17 HC (11-20)],* (The symbol “*” denotes 30-50% killing at the highest concentration tested.)

# Test system: human skin malignant melanoma cell line A2058
# Type: cell-based
# Conditions: RPMI-1640 medium containing 5% FBS; 24 hours; maximum 200 μg/ml
# Procedure: as §1
row,Substance,"Antitumoral activity IC50, A2058"
1,DLRGACAAAHAL [P17 LC],— (The symbol “—” denotes no activity within the concentration range tested.)
2,GQRGCSALGF [P17 HC (21-30)],— (The symbol “—” denotes no activity within the concentration range tested.)
3,GWFKK [P17 HC (1-5)],— (The symbol “—” denotes no activity within the concentration range tested.)
4,GWFKKTFHKV [P17 HC (1-10)],— (The symbol “—” denotes no activity within the concentration range tested.)
5,GWFKKTFHKVSHAVKSGIHA [P17 HC (1-20)],*^c (The symbol “*” denotes 30-50% killing at the highest concentration tested.)
6,SHAVKSGIHA [P17 HC (11-20)],— (The symbol “—” denotes no activity within the concentration range tested.)

# Same assay, conditions: serum-free RPMI-1640 medium; 24 hours; maximum 200 μg/ml
row,Substance,"Antitumoral activity IC50, A2058"
1,DLRGACAAAHAL [P17 LC],— (The symbol “—” denotes no activity within the concentration range tested.)
2,GQRGCSALGF [P17 HC (21-30)],— (The symbol “—” denotes no activity within the concentration range tested.)
3,GWFKK [P17 HC (1-5)],— (The symbol “—” denotes no activity within the concentration range tested.)
4,GWFKKTFHKV [P17 HC (1-10)],— (The symbol “—” denotes no activity within the concentration range tested.)
5,GWFKKTFHKVSHAVKSGIHA [P17 HC (1-20)],— (The symbol “—” denotes no activity within the concentration range tested.)
6,SHAVKSGIHA [P17 HC (11-20)],*^d (The symbol “*” denotes 30-50% killing at the highest concentration tested.)

# — patent US20100093642A1, “NOVEL POLYPEPTIDES” (priority 2006, published 2010)
